Results: PubChem BioAssay AID328 (DTP/NCI, 2004)
The list shows only some results of the screen, not a fair sample: it is rich in T/C values a quarter to a half above the control, in often repeated tests (any T/C) and in doses without a T/C. Other doses and runs of a compound stand elsewhere. T/C: endpoint of the treated group in % of that of the vehicle group. Some doses have a count of surviving animals in place of a T/C: the source holds a T/C of zero for them, seemingly a mark for toxic or unscored doses. Some doses without a T/C left all or most animals alive at the check, yet need not have been tolerated: survival well below the control is almost never listed, so the zero probably covers shortened survival too. Counts of survivors are from the toxicity check (mostly the fifth day) where no day follows; animals may have died later. Schedule codes are those of the source, read here as Q, the interval in days (D) or hours (H), X, the number of doses. For survival time, the PubChem record calls one and a half times the control and up active, and a quarter to a half above the control has no call in these data; cut-offs in other NCI protocols can differ. Some entries were tested several times; the values are given in rising order. Some T/C values are followed by the survivors on the day toxicity was checked, most often the fifth; without a count, all were alive then.

Test system: BDF1 mice, P388 leukemia ip, median survival T/C
Test: NCI In Vivo Anticancer Drug Screen. Data for tumor model P388 Leukemia (intraperitoneal) in B6D2F1 (BDF1) mice
Conditions: T/C endpoint: median survival time, higher T/C = longer survival
Procedure, shortened: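 Steps: implant the tumour, treat one group with compound and another with vehicle, record survival, then divide treated by control.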

[1] = dose: 50.0 mg/kg/injection, schedule: Q01DX009 (ip), vehicle: Klucel (hydroxypropylcellulose) (HPC)
[2] = dose: 400.0 mg/kg/injection, schedule: Q04DX003 (ip), vehicle: Klucel (hydroxypropylcellulose) (HPC)
[3] = dose: 50.0 mg/kg/injection, schedule: Q01DX009 (ip), vehicle: saline with Tween-80
[4] = dose: 100.0 mg/kg/injection, schedule: Q01DX009 (ip), vehicle: saline with Tween-80
[5] = dose: 200.0 mg/kg/injection, schedule: Q01DX009 (ip), vehicle: saline with Tween-80

`CC1CCC(NC(=O)N(CCCl)N=O)CC1` (stereo not given) was tested, and the T/C (dose: 2.3 mg/kg/injection, schedule: Q01DX009 (ip), vehicle: Klucel (hydroxypropylcellulose) (HPC)) was 144 % of control, the T/C (dose: 5.4 mg/kg/injection, schedule: Q01DX009 (ip), vehicle: Klucel (hydroxypropylcellulose) (HPC)) was 142 % of control and the T/C (dose: 8.2 mg/kg/injection, schedule: Q01DX009 (ip), vehicle: Klucel (hydroxypropylcellulose) (HPC)) was 125 % of control. For the same compound, the T/C (dose: 10.0 mg/kg/injection, schedule: Q04DX003 (ip), vehicle: saline with Tween-80) was 137 % of control, the T/C (dose: 12.5 mg/kg/injection, schedule: Q01DX009 (ip), vehicle: Klucel (hydroxypropylcellulose) (HPC)) was 145 % of control and the T/C (dose: 14.0 mg/kg/injection, schedule: Q04DX003 (ip), vehicle: saline with Tween-80, evaluated on day 5) was 197 and 216 % of control. For the same compound, the T/C (dose: 14.0 mg/kg/injection, schedule: Q04DX003 (ip), vehicle: saline with Tween-80, evaluated on day 60) was 197 and 216 % of control, the survivor count (dose: 20.0 mg/kg/injection, schedule: Q01DX001 (ip), vehicle: alcohol) was 10 of 10 and the T/C (dose: 20.0 mg/kg/injection, schedule: Q01DX001 (ip), vehicle: saline with Tween-80, evaluated on day 5) was 178, 179, 196 % of control. The T/C (dose: 20.0 mg/kg/injection, schedule: Q01DX001 (ip), vehicle: saline with Tween-80, evaluated on day 60) was 178, 179, 196 % of control, the T/C (dose: 21.0 mg/kg/injection, schedule: Q04DX003 (ip), vehicle: saline with Tween-80, evaluated on day 5) was 229 and 273 % of control and the T/C (dose: 21.0 mg/kg/injection, schedule: Q04DX003 (ip), vehicle: saline with Tween-80, evaluated on day 60) was 229 and 273 % of control. The T/C (dose: 24.0 mg/kg/injection, schedule: Q01DX001 (ip), vehicle: saline with Tween-80, evaluated on day 5) was 129, 274, 379, 400 % of control, the T/C (dose: 24.0 mg/kg/injection, schedule: Q01DX001 (ip), vehicle: saline with Tween-80, evaluated on day 60) was 545 % of control and the T/C (dose: 30.0 mg/kg/injection, schedule: Q01DX001 (ip), vehicle: saline with Tween-80, evaluated on day 5) was 216, 226, 314, 348, 425, 534 % of control. The T/C (dose: 30.0 mg/kg/injection, schedule: Q01DX001 (ip), vehicle: saline with Tween-80, evaluated on day 60) was 216, 226, 348, 534 % of control, the T/C (dose: 36.0 mg/kg/injection, schedule: Q01DX001 (ip), vehicle: saline with Tween-80, evaluated on day 5) was 250, 388, 442, 554 % of control and the T/C (dose: 36.0 mg/kg/injection, schedule: Q01DX001 (ip), vehicle: saline with Tween-80, evaluated on day 60) was 545 % of control. For the same compound, the survivor count (dose: 40.0 mg/kg/injection, schedule: Q01DX001 (ip), vehicle: alcohol) was 10 of 10, the T/C (dose: 45.0 mg/kg/injection, schedule: Q01DX001 (ip), vehicle: saline with Tween-80, evaluated on day 5) was 254, 258, 535, 562 % of control and the T/C (dose: 45.0 mg/kg/injection, schedule: Q01DX001 (ip), vehicle: saline with Tween-80, evaluated on day 60) was 254, 258, 535, 562 % of control. For the same compound, the survivor count [1] was 3 of 6, the T/C (dose: 54.0 mg/kg/injection, schedule: Q01DX001 (ip), vehicle: saline with Tween-80) was 136 % of control and the survivor count (dose: 100.0 mg/kg/injection, schedule: Q04DX003 (ip), vehicle: alcohol) was 6 of 6.

With `O=C(NNC(=O)OCc1ccccc1)OCc1ccccc1` the survivor count [2] was 4 of 6.

For `O=C(Nc1ccccc1)c1c(O)[nH]c(=S)[nH]c1=O`, the T/C (dose: 25.0 mg/kg/injection, schedule: Q01DX005 (ip), vehicle: saline with Tween-80) was 145 % of control [5 of 6 alive], the survivor count (dose: 100.0 mg/kg/injection, schedule: Q01DX005 (ip), vehicle: saline with Tween-80) was 0 of 6 and the survivor count (dose: 200.0 mg/kg/injection, schedule: Q01DX005 (ip), vehicle: saline with Tween-80) was 0 of 6.

In the case of `C=C1C(=O)OC2C=C(C)C3C(O)CC(C)(O)C3CC12` (stereo not given), the survivor count (dose: 400.0 mg/kg/injection, schedule: Q01DX009 (ip), vehicle: Klucel (hydroxypropylcellulose) (HPC)) was 6 of 6.

`N#Cc1ccc(NC(=O)N(CCCl)N=O)cc1` was tested, and the T/C (dose: 0.68 mg/kg/injection, schedule: Q01DX009 (ip), vehicle: saline) was 149 % of control, the T/C (dose: 0.75 mg/kg/injection, schedule: Q01DX009 (ip), vehicle: Klucel (hydroxypropylcellulose) (HPC)) was 141 % of control and the T/C (dose: 1.5 mg/kg/injection, schedule: Q01DX009 (ip), vehicle: Klucel (hydroxypropylcellulose) (HPC)) was 141 % of control. The survivor count (dose: 25.0 mg/kg/injection, schedule: Q01DX009 (ip), vehicle: Klucel (hydroxypropylcellulose) (HPC)) was 6 of 6, the survivor count (dose: 25.0 mg/kg/injection, schedule: Q01DX009 (ip), vehicle: saline) was 3 of 3 and the survivor count [1] was 6 of 6. The survivor count (dose: 50.0 mg/kg/injection, schedule: Q01DX009 (ip), vehicle: saline) was 3 of 3, the survivor count (dose: 50.0 mg/kg/injection, schedule: Q04DX003 (ip), vehicle: Klucel (hydroxypropylcellulose) (HPC)) was 6 of 6 and the survivor count (dose: 100.0 mg/kg/injection, schedule: Q01DX009 (ip), vehicle: Klucel (hydroxypropylcellulose) (HPC)) was 0 of 6. For the same compound, the survivor count (dose: 100.0 mg/kg/injection, schedule: Q01DX009 (ip), vehicle: saline) was 0 of 3, the survivor count (dose: 100.0 mg/kg/injection, schedule: Q04DX003 (ip), vehicle: Klucel (hydroxypropylcellulose) (HPC)) was 4 of 6 and the survivor count (dose: 200.0 mg/kg/injection, schedule: Q01DX009 (ip), vehicle: saline) was 0 of 3. For the same compound, the survivor count (dose: 200.0 mg/kg/injection, schedule: Q04DX003 (ip), vehicle: Klucel (hydroxypropylcellulose) (HPC)) was 1 of 6, the survivor count (dose: 400.0 mg/kg/injection, schedule: Q01DX009 (ip), vehicle: saline) was 0 of 3 and the survivor count [2] was 0 of 6.

For `Cc1ccc(S(=O)(=O)NC(=O)C2C(=O)CC3(CCCCC3)CC2=O)cc1`, the T/C (dose: 200.0 mg/kg/injection, schedule: Q01DX009 (ip), vehicle: Klucel (hydroxypropylcellulose) (HPC)) was 125 % of control.

With `O=C(NCCN1CC1)C(=O)NCCN1CC1` the survivor count (dose: 12.5 mg/kg/injection, schedule: Q04DX003 (ip), vehicle: saline with Tween-80) was 6 of 6 and the survivor count (dose: 25.0 mg/kg/injection, schedule: Q04DX003 (ip), vehicle: saline with Tween-80) was 2 of 6.

With `CCOC(=O)c1c(NC(=O)C(F)(F)F)[nH]c(SSc2[nH]c(NC(=O)C(F)(F)F)c(C(=O)OCC)c2C(=O)OCC)c1C(=O)OCC` the survivor count (dose: 300.0 mg/kg/injection, schedule: Q04DX003 (ip), vehicle: saline with Tween-80) was 2 of 6.

`CCCCCCCCCCCCCCCC(=O)N(CCCN)C(C)CCCN(CC)CC` (stereo not given) was tested, and the survivor count [3] was 0 of 6, the survivor count [4] was 0 of 6 and the survivor count (dose: 200.0 mg/kg/injection, schedule: Q04DX003 (ip), vehicle: saline with Tween-80) was 3 of 6. For the same compound, the survivor count (dose: 400.0 mg/kg/injection, schedule: Q04DX003 (ip), vehicle: saline with Tween-80) was 1 of 6.

In the case of `CN(C)c1ccc(CC2Cc3ccccc3C2=O)cc1` (stereo not given), the survivor count (dose: 400.0 mg/kg/injection, schedule: Q01DX009 (ip), vehicle: other) was 4 of 6.

In the case of `Nc1ncc(Cl)c2ccccc12`, the survivor count (dose: 12.5 mg/kg/injection, schedule: Q01DX005 (ip), vehicle: saline with Tween-80) was 3 of 5 and the survivor count (dose: 50.0 mg/kg/injection, schedule: Q01DX005 (ip), vehicle: saline with Tween-80) was 5 of 5.

In the case of `COC1C(C)OC(OC2CC(C)(O)Cc3cc4c(c(O)c32)C(=O)c2c(O)cc3c(c2C4=O)OC2OC3(C)C(O)C(N(C)C)C2O)C(OC)C1(C)OC` (stereo not given), the T/C (dose: 2.5 mg/kg/injection, schedule: Q01DX009 (ip), vehicle: other) was 129 % of control and the T/C (dose: 12.0 mg/kg/injection, schedule: Q04DX003 (ip), vehicle: water) was 129 % of control.

With `COC(=O)C(Cl)(Cl)N=Nc1c(Cl)cc(Cl)c(C)c1Cl` the T/C [3] was 142 % of control, the T/C [4] was 130 and 143 % of control and the survivor count [5] was 6 of 6.

With `O=[N+]([O-])c1cccc2c[n+](Cc3ccccc3)ccc12` the T/C (dose: 25.0 mg/kg/injection, schedule: Q01DX009 (ip), vehicle: saline with Tween-80) was 128 % of control and the T/C [3] was 147 % of control.

With `CC(C)=N/N=C(/N)[Se]` the survivor count [3] was 0 of 6, the survivor count [4] was 0 of 6 and the survivor count [5] was 0 of 6.
